Test results from PubChem BioAssay AID1347426 (Functional Genomics Laboratory (NCATS/FGL), 2020).
The whole screen tested about 31,000 sequences, of which about 1,400 (4.5%) were called active.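 Rule for the calls: active = median seed-adjusted z-score above 1 or below -1; inactive = the rest.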 Some of the results follow.

Assay: Novel Modifiers of Survival Motor Neuron (SMN) Protein: Gene Identification via Genome-wide siRNA Screen;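 note: luminescence tracks full-length SMN protein made from the SMN2 reporter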
Conditions: HEK293T SMN2-luciferase reporter, siRNA knockdown, 72 h; actives lie on both sides
Procedure, shortened: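 siRNA screen, 10418 genes ×3 siRNAs; 1 pmol/well, lipid reverse transfection into HEK293T SMN2-luc reporter line. 72 h, 37 °C, 5% CO2; ONE-Glo readout. Data: neg-ctrl normalized, log10, MAD; hit = MAD >1.0 or < -1.0.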
In the case of GCACCAUUACUAUAGAGGATT against PTH2R, the median seed-adjusted z-score is reported as inactive: -0.492. For GGACGGCCCAAAUCCAAAATT against TADA3L, the median seed-adjusted z-score was inactive: 0.00625. In the case of GAACCAUACAUACUACAGATT against WDR31, the median seed-adjusted z-score is reported as inactive: 0.796. In the case of CCUUCUACAGGAUCUCCAATT against ADRA1A, the median seed-adjusted z-score is reported as active: -1.06. With CACUGGAUUUGAGAGGUUATT against ABHD7 the median seed-adjusted z-score was inactive: -0.301. With GCAAUUCAGCAACUACGAATT against STX18 the median seed-adjusted z-score was inactive: -0.151. For CUGUGAUUGUAGUAGAUCATT against SLC19A3, the median seed-adjusted z-score was inactive: -0.0232. For GAGGCUCAAUGUUACACCATT against ACAT1, the median seed-adjusted z-score was inactive: -0.848. With CUGAUAAAGUGGGUCAACATT against TNFRSF10B the median seed-adjusted z-score was inactive: 0.064. For GGACCACAGUCAUACUCCATT against NAE1, the median seed-adjusted z-score was inactive: -0.453. In the case of AUAUAUAAGUUGUGCUAUATT against UBE2V1, the median seed-adjusted z-score is reported as inactive: 0.745. In the case of GGGAGUUUCUAUGCAGCGATT against SELO, the median seed-adjusted z-score is reported as inactive: 0.0973. In the case of CCUUGGAGGAGAUCGCUGATT against TEKT2, the median seed-adjusted z-score is reported as inactive: -0.349. With CAGCCAUGAUAAUAAAGCUTT against RARRES2 the median seed-adjusted z-score was inactive: -0.125. With AGGUGUCCGUUGAACUGGATT against CPSF4 the median seed-adjusted z-score was inactive: 0.298. In the case of CAAGUUCGACACCACCUUUTT against SIRT6, the median seed-adjusted z-score is reported as inactive: 0.0126. For GCCUGACUGUCCCUACAAATT against B4GALNT3, the median seed-adjusted z-score was inactive: -0.021. In the case of CCAAGAUGACUGUGAAUAATT against POLDIP3, the median seed-adjusted z-score is reported as inactive: 0.108. With CCAAGCAACUGAUCUAUUUTT against SLCO2A1 the median seed-adjusted z-score was inactive: -0.0778. For CCUUCAAUGUGGGUUAUCATT against DEGS1, the median seed-adjusted z-score was inactive: 0.0268. In the case of GCAGUACACGAGAAAGUCATT against 1-Sep, the median seed-adjusted z-score is reported as inactive: 0.0103. In the case of CGUCCAUCUUCGAUGCUAATT against GAPDHS, the median seed-adjusted z-score is reported as inactive: -0.674. For GCACCCUAGUUCUACCUCATT against CDKN1A, the median seed-adjusted z-score was inactive: 0.158. For CGUGCGUCUUGUGAGCAGATT against HLA-DQB1, the median seed-adjusted z-score was inactive: 0.454. In the case of GCAUAGUUAUGGAAGGAUATT against CENTB2, the median seed-adjusted z-score is reported as inactive: 0. In the case of CCUUCUGUAGGAUGCAUUUTT against LY6G5B, the median seed-adjusted z-score is reported as active: -1.29. For GGAAAGGUAAAGAUGCUAATT against SCIN, the median seed-adjusted z-score was inactive: 0.509. For CCAUGCCCUAUGUUAAGAATT against RRM2B, the median seed-adjusted z-score was inactive: -0.128. For GGAAGGGUCUGCAUCACAATT against GPI, the median seed-adjusted z-score was inactive: -0.122. With GAAACAAGCGUAUUAAAGATT against ZNF468 the median seed-adjusted z-score was inactive: -0.0435. For CCACAGGACUCAAGGCACATT against ZNF697, the median seed-adjusted z-score was inactive: 0.0503. In the case of AGCCCUCACUUCUACAACATT against FOXI1, the median seed-adjusted z-score is reported as inactive: -0.217. For CGUUACUUUUCCAUCACAATT against CHRM5, the median seed-adjusted z-score was inactive: -0.553. For GCAUUAUGCCCAAACCUAUTT against ZNF438, the median seed-adjusted z-score was inactive: 0.165. In the case of CACUAUACAGACUAAGUUUTT against PCDHA2, the median seed-adjusted z-score is reported as inactive: 0.803. For GGCGAACAGUUCUACAUGUTT against IFT57, the median seed-adjusted z-score was active: -1.1. With CAGAGUCUCUUCCAACGAATT against TINAG the median seed-adjusted z-score was inactive: 0.374. With GCCUCGUGAUGUUAACAGATT against SLC6A11 the median seed-adjusted z-score was inactive: -0.0369. In the case of GCCUAGAGCUCUUUCGUGATT against TRIM7, the median seed-adjusted z-score is reported as inactive: -0.845. For GUGUACAGGUUAAAGUUAATT against TOP3A, the median seed-adjusted z-score was inactive: 0.474. In the case of GUACAACCAAUAUAACAAATT against TERF2, the median seed-adjusted z-score is reported as inactive: 0.246. In the case of GUUCCGAAAUAAUUUGAAATT against SIL1, the median seed-adjusted z-score is reported as inactive: 0.0292. In the case of CCAUCCUUAGAGUUCCUUATT against SLC23A3, the median seed-adjusted z-score is reported as inactive: -0.254. For GCACGAAUGGUUCCAGUGATT against KLB, the median seed-adjusted z-score was inactive: 0.221. With UCACUGGGAACUUCACUAATT against MIP the median seed-adjusted z-score was inactive: 0.702. With GAGACAAAAUUACAGGACATT against ELAVL4 the median seed-adjusted z-score was inactive: -0.0523. In the case of CACUAGUCGUUAUGAUGGATT against DBT, the median seed-adjusted z-score is reported as inactive: -0.976. With GAAUUUGCGAUGUACUUAATT against CSNK1A1 the median seed-adjusted z-score was inactive: -0.608. With AGAUGUACAUCCUCGUGCATT against ELFN2 the median seed-adjusted z-score was inactive: -0.0888. With GACGAAGAGUUGACUGGAATT against NUP85 the median seed-adjusted z-score was inactive: 0.948. In the case of GGUACCUUCUCGCUCAUCATT against DLL4, the median seed-adjusted z-score is reported as inactive: 0.299. For CACUCGAAGCAGUUUGGAATT against SMS, the median seed-adjusted z-score was inactive: 0.186. In the case of ACGCUUACAUCAUCAGCUATT against EHD2, the median seed-adjusted z-score is reported as inactive: 0.0989. In the case of GGCAUAUGGUCGGAGUUCATT against ZNF667, the median seed-adjusted z-score is reported as inactive: -0.101. In the case of CCUUGACCAUGAAAAAGAATT against ZNF704, the median seed-adjusted z-score is reported as inactive: -0.15. With GCACCGUGGUGUCAACCAUTT against KCNK12 the median seed-adjusted z-score was active: 1.04. With GCACAGGUUUCACCAGCAATT against CREB5 the median seed-adjusted z-score was inactive: -0.0542. In the case of CCCUUGUAGUGAAACGGAATT against CYP4F8, the median seed-adjusted z-score is reported as inactive: 0.756. With GAUUUCUAGGCAUCCCGUATT against ARSA the median seed-adjusted z-score was inactive: 0.0938. For GCAUGGAGGAUUACUGUGATT against SRGAP2, the median seed-adjusted z-score was inactive: 0.0323. For GCAUUGAGACUACAGGGAATT against SLC6A18, the median seed-adjusted z-score was inactive: 0.148. In the case of GGUGGGCAAUAAAAGUGAUTT against DIRAS3, the median seed-adjusted z-score is reported as inactive: -0.419. With CCCUCUGACAAAUAUGAAATT against HECTD3 the median seed-adjusted z-score was inactive: 0. With GCUUGAAUCUUAGUGACCATT against HOXC12 the median seed-adjusted z-score was inactive: 0.788. In the case of CAGCUACUCUUGCCUAAAATT against USH1C, the median seed-adjusted z-score is reported as inactive: -0.164. In the case of CUCAAGUAGUGGUGACUGATT against SORD, the median seed-adjusted z-score is reported as inactive: 0.17. For GCAACUUAGAGGGUCAAGATT against ZNF571, the median seed-adjusted z-score was inactive: 0.175. With UCACGACCAUGGACAUUCATT against SLC39A7 the median seed-adjusted z-score was inactive: 0.0554. For AUUCAAGUCUUCAAACUUUTT against MLLT1, the median seed-adjusted z-score was inactive: -0.086. For CCAGUACGCUAUGGACGUATT against MDN1, the median seed-adjusted z-score was inactive: 0.187. With GACUAUCAUUUAAGGAUGATT against ADAM21 the median seed-adjusted z-score was inactive: 0. In the case of ACAAGGUGAUUGAGAUUAATT against PSMB8, the median seed-adjusted z-score is reported as inactive: 0. For GGGAUAUUGUGGUUGAUAATT against RBX1, the median seed-adjusted z-score was inactive: -0.000499. For ACUACAUACUUUCUACAGATT against FNTB, the median seed-adjusted z-score was inactive: -0.0163. In the case of AAACCUACCUGAUGAGCAATT against CHAT, the median seed-adjusted z-score is reported as inactive: -0.109. With UCUCUUCAAUAUGUAUUUATT against HOXC9 the median seed-adjusted z-score was inactive: 0.395. In the case of GGUUUAUCCUGUUCAAAGATT against HNRNPAB, the median seed-adjusted z-score is reported as inactive: -0.631. In the case of UGUCAGAAGUUACCUGGGATT against QPRT, the median seed-adjusted z-score is reported as inactive: 0.15. In the case of AGAUCCGAAUCGAGGCCAATT against ATP5D, the median seed-adjusted z-score is reported as inactive: 0. With AGUUCAUGGUUGUGGACAATT against RASSF5 the median seed-adjusted z-score was inactive: 0.11. For GUCCUACACUAUAAAUAUUTT against PCDHB14, the median seed-adjusted z-score was inactive: -0.229. In the case of GCUCUACCCGGAAUGGAGATT against RAB6B, the median seed-adjusted z-score is reported as inactive: 0. In the case of GACCUCUCAUAUACCUUAATT against ELL2, the median seed-adjusted z-score is reported as inactive: 0.459. For GGAGAUGCCUCAGACCAGUTT against HOXB1, the median seed-adjusted z-score was inactive: -0.0455. With AUAUGAACAAUGCACGGUUTT against SELO the median seed-adjusted z-score was inactive: 0.0973. For CAGUCAAUGGUUAUAAGAATT against SLCO1B3, the median seed-adjusted z-score was inactive: -0.303. For GCAGAAUGUAUUUCACAGATT against ATP6V0D2, the median seed-adjusted z-score was inactive: -0.0346. With CCCUUUUGAGGUAGUAAAATT against SLC25A21 the median seed-adjusted z-score was inactive: -0.219. For GAUAAAAACACGCAGCUUATT against TRIM14, the median seed-adjusted z-score was inactive: -0.0636. For GAAGGAUUUUGAGCCCGAATT against LETM1, the median seed-adjusted z-score was inactive: -0.491. With GCUCACCGCAGAAUCCAUATT against KLF8 the median seed-adjusted z-score was inactive: 0.0976. With CAACCAGAAGUAUCCAGGATT against GALNT8 the median seed-adjusted z-score was inactive: -0.283. In the case of GCUACUUAUGUGAACGUAATT against MET, the median seed-adjusted z-score is reported as inactive: 0.55. In the case of CACGAAAUCAUGCAAAUCATT against RPL17, the median seed-adjusted z-score is reported as inactive: -0.13. In the case of AGAAGUUCAUGGUCGGAGATT against SULT1A1, the median seed-adjusted z-score is reported as inactive: -0.26. For GACCCGUUUAUACAACAAATT against MX2, the median seed-adjusted z-score was inactive: -0.0346. In the case of AGUGGAAGUUUACAAUAAUTT against KIF25, the median seed-adjusted z-score is reported as inactive: -0.0031. With GGCGAAGGUUUAACGAUAATT against ZNF337 the median seed-adjusted z-score was inactive: 0.104. For GGCCGCUUCCUUAAUCAUATT against SETDB2, the median seed-adjusted z-score was inactive: 0.417. With GAACUGGAAAGUUUGGACATT against HHEX the median seed-adjusted z-score was inactive: -0.428. In the case of GAGCACAUCCUAUAUCAAATT against KATNAL1, the median seed-adjusted z-score is reported as inactive: -0.0327. In the case of CCUCUACCCUUAGUUCACATT against ZNF93, the median seed-adjusted z-score is reported as inactive: 0.502. In the case of CUGCCGACCAGAUUGAAGATT against MYL4, the median seed-adjusted z-score is reported as inactive: -0.388. For GGUUAGGCAUGACAUUGCATT against CYP2R1, the median seed-adjusted z-score was inactive: -0.981. With CCGGUUGUUUUACUGAAUATT against THEX1 the median seed-adjusted z-score was inactive: -0.423. With GCUUUGAUGUGAUUCACCUTT against PRKAG3 the median seed-adjusted z-score was active: -1.03. In the case of CAAUAUCCCUACCACUGAATT against SKIP, the median seed-adjusted z-score is reported as inactive: 0.804.
